Data on one substance can be found in PMC8948191.

Chains of the proteins cited; added tags and fusions are not shown. Lines headed by an entry give the natural chain unless they say otherwise; changes in a name come on top.
UniProt Q96C03: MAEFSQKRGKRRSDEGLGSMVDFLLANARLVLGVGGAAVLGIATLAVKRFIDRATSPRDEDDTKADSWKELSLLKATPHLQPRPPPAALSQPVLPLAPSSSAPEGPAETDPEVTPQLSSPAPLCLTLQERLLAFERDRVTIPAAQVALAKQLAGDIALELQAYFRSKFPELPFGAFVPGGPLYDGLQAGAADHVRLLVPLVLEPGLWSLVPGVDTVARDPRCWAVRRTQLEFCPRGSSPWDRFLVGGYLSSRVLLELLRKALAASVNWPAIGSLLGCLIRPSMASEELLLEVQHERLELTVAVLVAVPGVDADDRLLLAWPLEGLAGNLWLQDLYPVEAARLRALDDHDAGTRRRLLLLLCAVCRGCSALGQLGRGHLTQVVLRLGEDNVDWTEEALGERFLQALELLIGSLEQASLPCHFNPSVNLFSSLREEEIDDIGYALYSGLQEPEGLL

The assay concerns the target MiD49ΔTM (MiD49 with a transmembrane domain deletion) (human) (UniProt Q96C03). The assay is described as follows: pull-down; cell-free system, recombinant GST- or His-fusions purified from E. coli; CLUH and Drp1 (or Drp1ΔIB) included together with the receptor (MiD49ΔTM, MffΔTM or MffΔCCΔTM) as bait; no cross-linkers; both purified.

These are yes or no findings as the source states them, for the method shown. Binding calls can cover weak binding; strength is not graded here.

With “Purified recombinant Drp1 (isoform 1) (from UniProt O00429-1 1-736)”, the binding result is recorded as “binds”.
